Experimental data reported in EP0821003B1 (Aventis Pharma Ltd., priority 1995, dated 2003).
Some peptides are written in HELM: one residue between dots, names in brackets for other building blocks, links after the first $.

Test: solid-phase peptide synthesis
Details: whole synthesis, 215 nm

Substance | final HPLC purity [%]
PEPTIDE1{A.K.L.A.F.G.K.G}$$$$V2.0 | 97.5
PEPTIDE1{A.A.L.T.F.G.K.G}$$$$V2.0 | 98.1
PEPTIDE1{A.K.L.T.A.G.K.G}$$$$V2.0 | 98.6
PEPTIDE1{K.L.T.F.G.K.G}$$$$V2.0 | 100
PEPTIDE1{[ac].A.K.L.T.F.G.K.G.T}$$$$V2.0 | 98.8
PEPTIDE1{A.K.L.T.F.A.K.G}$$$$V2.0 | 98.2
PEPTIDE1{[ac].[dA].[dK].[dL].[dT].[dF].G.[dK].G.[dT].[am]}$$$$V2.0 | 98.4
PEPTIDE1{A.K.L.T.F.G.K.A}$$$$V2.0 | 97.5
PEPTIDE1{A.K.A.T.F.G.K.G}$$$$V2.0 | 98.2
PEPTIDE1{A.K.L.T.F.G.K.G}$$$$V2.0 | 97.9
PEPTIDE1{A.K.L.T.F.G.K.G.T}$$$$V2.0 | 100
PEPTIDE1{A.K.L.T.F.G.A.G}$$$$V2.0 | 97.6
PEPTIDE1{[ac].[dA].[dK].[dL].[dT].[dF].G.[dK].G.[dT]}$$$$V2.0 | 98.5
PEPTIDE1{[dA].[dK].[dL].[dT].[dF].G.[dK].G.[dT]}$$$$V2.0 | 99.6
